Article PMC10163288
The list shows a part of the results.

B1: il2ra_site2_3nfp_sap_21_mot_HHH_b1_04781_af2_000000057_0001_1_18_H_._0bad3e1dd0b580ac51794e340135530b_0001_af2_0001_0000100001_0000001_0_0001 (protein)
chain: SSSSDVEEELEHFLEEIERLLREGNPEEAKEHLQEAARLAYENNDFEVFAKLADLAAKLFSSSSS
B2: il2ra_site1_1z92_normal_mot_HHH_b1_00108_af2_000000035_0001_38_51_H_._HHH_b2_04082_0001_0000200010_0000001_0 (protein)
chain: SSSSSSDYEEIAELFREAARINDRREVEKILEEALELAEENGDESLAKDIRQFLRMLESSSSSSS
B3: il2ra_site2_2erj_sap_16_mot_HHH_b2_03659_000000135_0001_38_56_H_._HHH_b1_04977_0001_0000300018_0000001_0_0001 (protein)
chain: SSSSDLEEEIRELREELEKLIEKGDFHRLYHLLVEISELIRELNDEELAREFNKLLQEVMSSSSS
B4: il2ra_site1_3nfp_sap_9_mot_HHH_b1_03716_af2_000000235_0001_20_37_H_._HHH_b1_05438_0001_0000400011_0000001_0_0001_af2pred_0001_af2pred_1 (protein)
chain: SSSSTELKELLKIVQRLFEEFNLSEEQAQELLQLAEELAKEGVSLEEIEELLRELAERLSSSSSS
B5: il2ra_site1_1z92_sap_19_mot_0d89ad2be31940e41b8548213a5e2889_0001_000000090_0001_19_33_H_._HEEHE_1422_0002_0000200016_0000001_0_0001_af2pred_dldesign_0_af2pred (protein)
chain: SSSSSDELADEIYDLFNEASKEKDKEKRKELLNKALELAKKNKDSKTVAEIENYLKMSKSSSSSS
B6: il2ra_site1_2b5i_normal_mot_f5ff40796168375b462bec8614a1db4a_0001_1_000000138_0001_53_65_H_._HHH_b1_00609_af2_0001_0000100003_0000001_0_af2pred_dldesign_0_af2pr … (protein)
chain: SSSSMDPAERLAEFLATADKLSDKNEQIKLLRLARRWARKQGDAEALAALEARLKEVLESSSSSS
B7: il2ra_site1_3nfp_sap_16_mot_cc4219192d8ccd35c40e7b68f9a57604_0001_af2_000000124_0001_16_32_H_._HHH_b2_07250_af2_0001_0000100007_0000001_0_0001 (protein)
chain: DAEEIAEAVEELLEFAARLDSVSVTVENGELHVTVEGDDVQARHALKLAEHAAKAFGIEVTVETE
B8: il2ra_site2_2erj_sap_24_mot_HHH_b1_00071_af2_000000225_0001_40_56_H_._HHH_b2_07109_0001_0000200010_0000001_0_0001 (protein)
chain: SSSSSEAEEEALRLAWEALRANYEGNPEEARELLERAFELAEEGNDEHLLHLIESALETLSSSSS
B9: il2ra_site2_2erj_normal_mot_HHH_b1_05749_af2_000000086_0001_23_39_H_._HHH_b1_02897_0001_0000200005_0000001_0 (protein)
chain: SSSSSSSEVEEEVEELLEQAKRITDLREAYELASEALRLAAENNNRELLELIRRVLEELSSSSSS
B10: il2ra_site1_1z92_normal_mot_HHH_b1_06286_000000038_0001_40_57_H_._HHH_b2_03353_0001_0000300009_0000001_0_af2pred_0001_af2pred (protein)
chain: SSSSDEEELRERLRELAERAGVTEEDLEFFEEQVRRALELGNPESAEAVVRQFERSARRSSSSSS
B11: il2ra_site1_3nfp_sap_20_mot_HHH_b1_00678_af2_000000150_0001_43_56_H_._HHH_b1_02486_0001_0000900022_0000001_0_0001_af2pred_0001_af2pred_swapped (protein)
chain: SSSEEEVEELLKQAERIAEELGSRAARLFVERAEKLAREAAKLNDEEKLERVAEALEEFLEQASS
B12: il2ra_site1_1z92_sap_9_mot_HHH_b2_04965_af2_000000085_0001_3_17_H_._HHH_b1_08109_af2_0001_0000100003_0000001_0_0001 (protein)
chain: SEAEEVIEELIEALREGDEELVRRLEKELEKWLGSPDAVEFVAMLAERAAKGDPKAERLLEKLLR
B13: il2ra_site2_2erj_normal_mot_HHH_b2_08028_000000126_0001_18_34_H_._HHH_b2_01768_af2_0001_0000600056_0000001_0 (protein)
chain: SSSSDEEELEELLERAKRLLEEGNPEEAHEVLSEAFELAYRLRDFEAFSELAELALEVLGSSSSS
B14: il2ra_site1_2b5i_sap_16_mot_HHH_b1_06138_000000206_0001_1_17_H_._HHH_b1_04517_0001_0001000042_0000001_0_0001_af2pred_0001_af2pred (protein)
chain: SSSSSSDEADELYREASRLWLRGNKEEAERLLEEAIEIAEREGDEEIVRELRHFLERASSSSSSS
B15: il2ra_site2_3nfp_sap_16_mot_HHH_b1_03376_000000004_0001_41_55_H_._ems_p1-15H-GBL-16H-GBL-15H_0656_0001_0001_0001_af2_0001_0000700003_0000001_0_0001 (protein)
chain: SSSSSSEEIEERVEELLEEAKKIEDPEERRKVLAEAAHLAWEGRDPRLFMAVAEVAYELLSSSSS
B16: il2ra_site1_3nfp_sap_12_mot_HHH_b2_03448_000000071_0001_40_54_H_._HHH_b1_04006_0001_0000200010_0000001_0_0001_af2pred_0001_af2pred_1_swapped (protein)
chain: SSSSDEVVELLLELSERLREAMRNSDEELLEELLEELRELLEQYGDPRVRRLIESLEKALGSSSS
B17: il2ra_site1_3nfp_sap_19_mot_HHH_b1_00160_000000267_0001_1_17_H_._HHH_b2_05199_af2_0001_0000100006_0000001_0_0001_af2pred_0001_af2pred_1_swapped (protein)
chain: SEEEVLEKLEELAKNPEEKALVKLIKQAVELHNIPPEEALELLLELFKKAGDPLYELVEELKERG
B18: il2ra_site2_2erj_normal_mot_HHH_b2_07568_000000046_0001_18_34_H_._HHH_b1_00778_af2_0001_0000300010_0000001_0 (protein)
chain: SSSDKEEAEELYEEAKELLERGNPEEAEKVLRRASELAFEAGDFELFNKLAELLRKIAELGSSSS
B19: il2ra_site1_3nfp_sap_18_mot_HHH_b1_02961_000000054_0001_1_18_H_._HHH_b1_00507_af2_0001_0000100005_0000001_0_0001_af2pred_0001_af2pred_1 (protein)
chain: DEEEELAERIRQAVEKNDPELLRRVAEELLRKLGDPAEAAKLFEELLEKAGLSPREKLRAMRLVA
B20: il2ra_site1_3nfp_sap_17_mot_HHH_b1_07180_af2_000000260_0001_1_19_H_._HHH_b2_06088_af2_0001_0000300034_0000001_0_0001 (protein)
chain: DERRVDEYFVRMVAEAAGVPSVEVTVHNGKFHVTISGDDEAAEKVAEKIEEAAERATLDLEVEVE
B21: il2ra_site1_1z92_normal_mot_66bb1f637706d7249e1dd387c51866da_0001_1_000000118_0001_54_65_H_._b453c5b638ed7abcdda957363cf0b98a_0001_0001_0000100001_0000001_0_af2 … (protein)
chain: SHAEVRRLAAELGVPEQATDRFLRLLDEFSKLADERTAVQAILDLAEKLNDPDLARLARAVLSLP
B22: il2ra_site2_2erj_sap_21_mot_HHH_b1_08207_af2_000000250_0001_43_57_H_._HHH_b1_04130_af2_0001_0000200012_0000001_0_0001 (protein)
chain: SSSSDELHELFRLANEILHALSRGDEERVRELLEELERLAEEANSDNAKEIVEALEKHLDSSSSS
B23: il2ra_site2_3nfp_sap_16_mot_ems_3hM_1278_af2_000000151_0001_43_60_H_._HHH_b1_08177_0001_0000200024_0000001_0_0001 (protein)
chain: SSSSDAEEAAELLLRKLEELGDEESFEELEELLEKLKETGDPEDLMELYALALEIYKRRHSSSSS
B24: il2ra_site1_3nfp_sap_17_mot_HHH_b1_06312_000000077_0001_1_18_H_._HHH_b2_05980_af2_0001_0000400032_0000001_0_0001_af2pred_0001_af2pred (protein)
chain: SSSSDVEERVKELLEEAKELLEEGNPQEANRVLEEAFRLAKEADDPELTEAVFKVMREAAQSSSS

molecular target: il2ra, P01589; assay: yeast display titration

Apparent Kd, inactive:
B1 no binding seen
B2 no binding seen
B3 > 1500 nM
B4 no binding seen
B5 no binding seen
B6 no binding seen
B7 no binding seen
B8 no binding seen
B9 no binding seen
B10 no binding seen
B11 no binding seen
B12 no binding seen
B13 no binding seen
B14 no binding seen
B15 no binding seen
B16 no binding seen
B17 no binding seen
B18 no binding seen
B19 no binding seen
B20 no binding seen
B21 no binding seen
B22 no binding seen
B23 no binding seen
B24 no binding seen

Quoted at random: two entries already listed.
Apparent Kd, inactive:
B17 no binding seen
B16 no binding seen
